Source: US12540174
No constants are given. Whether binding was seen depends on the method and setting. Some results given as binding are weak or reduced against the parent protein; the word gives no strength.

The chains behind the UniProt entries cited, without tags or fusion partners. Residues count along the entry.
UniProt P08670, residues 2-466: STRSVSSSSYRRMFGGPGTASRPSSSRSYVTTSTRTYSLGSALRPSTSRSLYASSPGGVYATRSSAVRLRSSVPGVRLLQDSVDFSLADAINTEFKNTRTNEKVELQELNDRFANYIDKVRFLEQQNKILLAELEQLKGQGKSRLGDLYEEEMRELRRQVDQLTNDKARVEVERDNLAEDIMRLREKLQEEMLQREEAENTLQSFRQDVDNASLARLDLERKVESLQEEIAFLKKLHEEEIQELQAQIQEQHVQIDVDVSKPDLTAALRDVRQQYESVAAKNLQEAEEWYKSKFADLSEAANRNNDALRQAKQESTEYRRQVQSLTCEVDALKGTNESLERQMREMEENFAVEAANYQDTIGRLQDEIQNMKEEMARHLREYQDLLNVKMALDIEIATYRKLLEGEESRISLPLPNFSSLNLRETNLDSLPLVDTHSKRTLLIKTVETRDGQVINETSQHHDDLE

Experiments:
[1] = target: vimentin on the cell surface of U251 glioma cells (UniProt P08670); test: flow cytometry on glioma cells (U251), pritumumab 160 nM, Ax488 FITC-A channel
[2] = target: vimentin on the cell surface of U251 glioma cells (UniProt P08670); test: flow cytometry on U251 glioma cells, Ax488 FITC-A channel; antibody concentration not given for this figure
[3] = target: vimentin on the cell surface of U251 glioma cells (UniProt P08670); test: flow cytometry on U251 glioma cells

binding [1]: binds | binding [2]: binds | binding [3]: binds
B1: pritumumab (antibody, human IgG1, kappa, V domains shown)
VH: EVQLLESGGDLVQPGGSLRLSCAASGFTFSNYAMSWVRQAPGKGLEWVSAITPSGGSTNYADSVKGRFTISRDNSQNTLYLQMNSLRVEDTAVYICGRVPYRSTWYPLYWGQGTLVTVSS
VL: DIQMTQSPSSLSASVGDRVTITCRASQDISNYLAWFQQKPGKAPKSLIYAASSLHSKVPTQFSGSGSGTDFTLTISSLQPEDFATYYCLQYSTYPITFGGGTKVEIKR
